# This is one part of the list.
# Target: T1, OsSMF1 (Oryza sativa, UniProt Q6ZLB0 1-436)
# T1 sequence: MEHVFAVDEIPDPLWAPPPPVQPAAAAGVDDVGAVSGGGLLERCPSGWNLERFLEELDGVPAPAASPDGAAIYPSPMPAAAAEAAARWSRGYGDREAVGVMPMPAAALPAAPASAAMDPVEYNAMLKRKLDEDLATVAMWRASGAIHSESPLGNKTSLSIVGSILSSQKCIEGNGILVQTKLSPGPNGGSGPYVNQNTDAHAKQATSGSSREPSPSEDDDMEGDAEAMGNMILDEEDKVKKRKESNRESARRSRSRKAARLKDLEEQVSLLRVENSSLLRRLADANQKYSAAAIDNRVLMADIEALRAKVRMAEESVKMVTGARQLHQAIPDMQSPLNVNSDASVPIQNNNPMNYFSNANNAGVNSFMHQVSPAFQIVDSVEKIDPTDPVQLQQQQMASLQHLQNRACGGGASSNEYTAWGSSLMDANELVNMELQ
# Experiment: protein-binding microarray (RPBM); PBS, 2% BSA, 51.3 ng/ul salmon testes DNA, 50 uM zinc acetate, 200 nM TF, 25 C, 1 h; high values mean tight binding
# Details: protein: recombinant; tags: N-terminal polyhistidine and DsRed monomer fusion (pET32a); chain copies: 2; label: CyDye5-dUTP incorporated in the synthesized complementary strand; 3' TTTTT single-stranded linker to array surface; dsDNA, one strand shown
# Procedure, shortened: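 Transcription factors were each fused at the N-terminus to a polyhistidine tag plus DsRed and expressed in E. coli BL21-CodonPlus before Ni–NTA purification. Binding to a double-stranded custom Agilent array was carried out with 200 nM protein at 25 °C for 1 h in PBS, 2% BSA, salmon testes DNA and 50 µM zinc acetate. The binding signal is per-feature fluorescence intensity, in arbitrary units, on an Axon 4000B scanner.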
row,Sequence,binding signal
1,ACGTGTAAGGTATCAACTGATGTGTCGGACACTCGGACTCCGGAGTCACCTAGTGCAG,4140 fluorescence intensity (a.u.)
2,AAAGAAATACTAGTATGCTGATGCAAGCTAGTGTGATCCACGGAGTCACCTAGTGCAG,3470 fluorescence intensity (a.u.)
3,TGAAAAGACGATCTTTATGACGCATGGTTGTTGACACATGCGGAGTCACCTAGTGCAG,24200 fluorescence intensity (a.u.)
4,TCAACTGATGACTTGGATTGGGTCTCCAGCATGTATGGTCCGGAGTCACCTAGTGCAG,8500 fluorescence intensity (a.u.)
5,GCAAATTGTCCATCTCTGACGCCTCATCTGAATTGACTGACGGAGTCACCTAGTGCAG,29100 fluorescence intensity (a.u.)
6,TTGAAATTAGAACGATGTGACAGAAAAGTTGGAAGTTTATCGGAGTCACCTAGTGCAG,20300 fluorescence intensity (a.u.)
7,ATTTATGGGCTGGGGCTGTGGACCGCCAGACTTCATCGTCCGGAGTCACCTAGTGCAG,3190 fluorescence intensity (a.u.)
8,TATACACCACGTTTGCTGGCTTGGCTTCCTTCCACACTCCCGGAGTCACCTAGTGCAG,4000 fluorescence intensity (a.u.)
9,ATATATTTCACTGGGGTTTCTATGGCTGTGGAAGGATATCCGGAGTCACCTAGTGCAG,25700 fluorescence intensity (a.u.)
10,TCTTCTCCCGTACTCCGCCACGCCGCACGTCTTCCCTTCGCGGAGTCACCTAGTGCAG,3950 fluorescence intensity (a.u.)
11,AGTTTGCAATTCATCGACGTGTAATTCTGTACAATGAAATCGGAGTCACCTAGTGCAG,5080 fluorescence intensity (a.u.)
12,GCAGGCTCACTCACCTCGCTTCCTGTCCGACATCGCGCCGCGGAGTCACCTAGTGCAG,3240 fluorescence intensity (a.u.)
13,AAAGAAAGAAAGGCACGCGTCATCTTCCTTCCTACTCACGCGGAGTCACCTAGTGCAG,7350 fluorescence intensity (a.u.)
14,ATAACGTGACAAATGCGACATGGTTCATGCTTGCTCGATTCGGAGTCACCTAGTGCAG,3680 fluorescence intensity (a.u.)
15,GAGGCCTGCGACGTGATCGTGGACGAACACATCAGCGGCACGGAGTCACCTAGTGCAG,5130 fluorescence intensity (a.u.)
16,TCCTGGTACGGCACCTCCACGTCGGCGGCCGCCACCACGTCGGAGTCACCTAGTGCAG,5370 fluorescence intensity (a.u.)
17,CGTCCGCAGCACGCCACGGTAGCGCGACACCCGGCCTTCCCGGAGTCACCTAGTGCAG,4600 fluorescence intensity (a.u.)
18,ATCGTGCTCCTTCTTTGGGTTGTAGTATTTTATATGGTTGCGGAGTCACCTAGTGCAG,3250 fluorescence intensity (a.u.)
19,AAATTAATGAGATCGATTGTTCGTTGCAATGTCAGCAGGTCGGAGTCACCTAGTGCAG,4600 fluorescence intensity (a.u.)
20,TTGGCGAGGCTCGCCGTGGTTGCGCCGGCGGCGGCCACGTCGGAGTCACCTAGTGCAG,4880 fluorescence intensity (a.u.)
21,AAAACTATTCGAATAGCTGTGCCCGCGGTTATGGGCGGGTCGGAGTCACCTAGTGCAG,3340 fluorescence intensity (a.u.)
22,CTAAGCATCCTGCATAATATCATAATCGTCCGGACGTCATCGGAGTCACCTAGTGCAG,34100 fluorescence intensity (a.u.)
23,CTGCTATCGGCTAGCGACAGGGCTCGAGTTCGATGTCATCCGGAGTCACCTAGTGCAG,3280 fluorescence intensity (a.u.)
24,TGCGCAGTCCGAGTCCGAGCCCAACTAAACCACGTTCTAACGGAGTCACCTAGTGCAG,34700 fluorescence intensity (a.u.)
25,TGCTGCCGCTGTACACGCGCGGACCCAAGAACGCGCCTCCCGGAGTCACCTAGTGCAG,3910 fluorescence intensity (a.u.)
26,GACGGTTAACCCAATGCAGGTTCACATAATCGTGCACGTTCGGAGTCACCTAGTGCAG,28400 fluorescence intensity (a.u.)
27,TCCACGCGCGTGAGGTTTGCTGTGACGAAGGCCATCGGTGCGGAGTCACCTAGTGCAG,3330 fluorescence intensity (a.u.)

row,Sequence,binding signal
1,ATTTCAATCTAGCTGACATCATCACTTCATCTTATTTGACCGGAGTCACCTAGTGCAG,11700 fluorescence intensity (a.u.)
2,AGTAGGCGGTGATGTGACTCAGCTATACTTAAAACAAGGCCGGAGTCACCTAGTGCAG,5750 fluorescence intensity (a.u.)
3,GGCGACCAGACATGGCTGTCCACGCTGGCCCCTCGCCTTACGGAGTCACCTAGTGCAG,5460 fluorescence intensity (a.u.)
4,GAGTTCTTAAAGGCTATACACCCTACGAGAATCCACATCACGGAGTCACCTAGTGCAG,4320 fluorescence intensity (a.u.)
5,GGACACGAGGCTTCTTTGGCAGACGTGGCGCTGAGTGAGCCGGAGTCACCTAGTGCAG,11500 fluorescence intensity (a.u.)
6,GGGCCCACCTTGAAAGATCACGTGTCACCCGCGCCATCTACGGAGTCACCTAGTGCAG,4030 fluorescence intensity (a.u.)
7,CATCGAAAATCAAAATCCAAGGAACACGTCAATAACAACACGGAGTCACCTAGTGCAG,8250 fluorescence intensity (a.u.)
8,AATCGAGAAATCCTTCGAACCTAGTAATAATGCCTACTCTCGGAGTCACCTAGTGCAG,23700 fluorescence intensity (a.u.)
9,GTCCAATCCCTTACCGTTGATTGGCCACGTGGCTAAAACTCGGAGTCACCTAGTGCAG,8830 fluorescence intensity (a.u.)
10,CAAGCGCGGCGGCGGCGACAGACGTCATCGGCGGCGAGGTCGGAGTCACCTAGTGCAG,6430 fluorescence intensity (a.u.)
11,AACCGCAAGCAACCCAGAGACGACGAGCCACGCACTCACCCGGAGTCACCTAGTGCAG,4150 fluorescence intensity (a.u.)
12,GGAGTGGAATCCAATGCGGGTGGCGTCCAGTGAGACGTGGCGGAGTCACCTAGTGCAG,4780 fluorescence intensity (a.u.)
13,CTATAACATCGCATGACACTATTTGCTTTATTTATTTATTCGGAGTCACCTAGTGCAG,3720 fluorescence intensity (a.u.)
14,TTGCATACCAGTTTAGTCAAACGAATTTATCTTAGTTTAACGGAGTCACCTAGTGCAG,19400 fluorescence intensity (a.u.)
15,AGCACCACCACCACCACCCTCTCCCTGCACGTCACGAAGCCGGAGTCACCTAGTGCAG,5580 fluorescence intensity (a.u.)
16,GGCGTGGTGCTATGTTTGGTGATCATTTTGCCAGTCTGTCCGGAGTCACCTAGTGCAG,3170 fluorescence intensity (a.u.)
17,GAGCCCTACGTCGCCGCCCACAACGTGATACTCTCCCACGCGGAGTCACCTAGTGCAG,3530 fluorescence intensity (a.u.)
18,ATTCAGGCTGAGGCATGTGATGACGGGAATTCGGATACTGCGGAGTCACCTAGTGCAG,3370 fluorescence intensity (a.u.)
19,TTCGTCTCCGATCGATGCCTCGCCTGACTCGCATGAGGGGCGGAGTCACCTAGTGCAG,3210 fluorescence intensity (a.u.)
20,GGAGGACTGACCTGACGCTGGCCCCTGCCACGTGGCGGTGCGGAGTCACCTAGTGCAG,34800 fluorescence intensity (a.u.)
21,GTGATACATGCTGACGTCTTATTTGATATGCCATAAATATCGGAGTCACCTAGTGCAG,6270 fluorescence intensity (a.u.)
22,TACACGCTGACGCAACACACGAGCGTACGCACATAATCACCGGAGTCACCTAGTGCAG,5440 fluorescence intensity (a.u.)
23,CCAGCGGATGAACGTGACGCGACCTCCAACCACAAGCCTCCGGAGTCACCTAGTGCAG,4330 fluorescence intensity (a.u.)
24,CGCAGCGGCCGACCTTGTCGGTAGTCATGATGGCGACGAACGGAGTCACCTAGTGCAG,3680 fluorescence intensity (a.u.)
25,CCCAGTCCACGTACGTGGGGCTAGGTCTATAGACCTGGATCGGAGTCACCTAGTGCAG,7240 fluorescence intensity (a.u.)
26,ATATAAGCCGCTGCGAGTGTGGTCATCAGTGGTGAGAGTGCGGAGTCACCTAGTGCAG,26800 fluorescence intensity (a.u.)
27,CCGCCGTGTGACACTGACACCCTGACCCACCAGTGGGGCCCGGAGTCACCTAGTGCAG,4310 fluorescence intensity (a.u.)

# Some values from the entries so far:
# Value of GGAGTGGAATCCAATGCGGGTGGCGTCCAGTGAGACGTGGCGGAGTCACCTAGTGCAG under binding signal: 4780 fluorescence intensity (a.u.)
# Value of GAGTTCTTAAAGGCTATACACCCTACGAGAATCCACATCACGGAGTCACCTAGTGCAG under binding signal: 4320 fluorescence intensity (a.u.)
# Value of GGAGGACTGACCTGACGCTGGCCCCTGCCACGTGGCGGTGCGGAGTCACCTAGTGCAG under binding signal: 34800 fluorescence intensity (a.u.)
